Test results: patent US4071510 (dated 1978)

Experiment: general procedure: solution-phase peptide synthesis; azide method (isoamyl nitrite/HCl); N,N'-dicyclohexylcarbodiimide with N-hydroxy
Details: coupling step, of the theoretical amount, acetate

First: BOC--D--Ser--Met--Glu (γ--OBu^t)--His--Phe--Arg--Trp--Gly--Lys(BOC)--Pro--Val--Gly--OH(I)
Second: Cbz--Glu (OBu^t)--His--Phe--Arg--Trp--Gly--Lys(Boc)--Pro--Val--Gly--OH (I)
The step yield of the first is higher: 78% for the first, 75% for the second.

Work on “BOC--D--Ser--Met--Glu--(γ--OBu^t)--His--Phe--Arg--Trp--Gly--Lys- -Pro--Val--Gly--Lys(BOC)--Lys(BOC)--Lys(BOC)--Lys(BOC)--NH2. HCl (II)” yielded a step yield of 87%.
